Laboratory results: PubChem BioAssay AID1259254 (NCATS, 2017)
Shown is a random part of about 59,000 reagents. Over the whole deposit, about 1,550 (2.6%) got an active call. 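G2 share is only a proxy for re-replication; each gene was hit by three separate siRNAs, and active genes were retested.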 Raw values are not corrected between plates. A number with no mark means an inactive call. Reagents against one gene are numbered here. No sequences are given here. Not given: the amount of reagent.

Assay: 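Finding genes that stop cells copying their DNA twice in one cycle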 (primary screen)
System: human HCT116 colorectal cancer cells
Knock-down reagent: single siRNA against human genes
Time to read-out: 3 days
Read-out: 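Imaged Hoechst DNA stain sorts each cell into a cycle phase by DNA amount; per plate, G2 fraction set to 0% for non-targeting and 100% for GMNN siRNA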
Scale: G2 robust z-score and G2 cells, % of GMNN control: higher = more G2 cells, more excess DNA replication; raw share of cells in G2: higher = larger share of cells with G2 DNA content
Rule for the call: 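Active siRNAs have a G2 robust z of 5 or more median absolute deviations over the median, which in these data means about 38% or higher of GMNN control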

gene symbol | reagent | G2 robust z-score | G2 cells, % of GMNN control | raw share of cells in G2 (%)
TTC9 (tetratricopeptide repeat domain 9) | 1 | -0.0696 | 2.48 | 7.36
TTC9 (tetratricopeptide repeat domain 9) | 2 | 0.689 | 7.81 | 6.54
TTC9 (tetratricopeptide repeat domain 9) | 3 | 1.23 | 11.6 | 8.05
R3HDM1 (R3H domain containing 1) | 1 | -0.158 | 1.86 | 5.11
R3HDM1 (R3H domain containing 1) | 2 | 0.0217 | 3.12 | 5.29
R3HDM1 (R3H domain containing 1) | 3 | -0.908 | -3.42 | 2.1
C5orf63 (chromosome 5 open reading frame 63) | 1 | 1.87 | 16.1 | 9.68
C5orf63 (chromosome 5 open reading frame 63) | 2 | 1.11 | 10.8 | 7.8
C5orf63 (chromosome 5 open reading frame 63) | 3 | 0.698 | 7.88 | 8.06
ABCA6 (ATP binding cassette subfamily A member 6) | 1 | -0.276 | 1.02 | 4.22
ABCA6 (ATP binding cassette subfamily A member 6) | 2 | -0.351 | 0.498 | 4.32
ABCA6 (ATP binding cassette subfamily A member 6) | 3 | 0.996 | 9.97 | 10.4
SUCO (SUN domain containing ossification factor) | 1 | -0.611 | -1.33 | 3.13
SUCO (SUN domain containing ossification factor) | 2 | 0.514 | 6.59 | 7.05
SUCO (SUN domain containing ossification factor) | 3 | -0.503 | -0.568 | 3
AFF3 (ALF transcription elongation factor 3) | 1 | -1.11 | -4.81 | 1.55
AFF3 (ALF transcription elongation factor 3) | 2 | 0.787 | 8.51 | 8.83
AFF3 (ALF transcription elongation factor 3) | 3 | -0.00629 | 2.92 | 4.17
GFPT2 (glutamine--fructose-6-phosphate transaminase 2) | 1 | 2.66 | 21.7 | 13.6
GFPT2 (glutamine--fructose-6-phosphate transaminase 2) | 2 | 1.03 | 10.2 | 9.06
GFPT2 (glutamine--fructose-6-phosphate transaminase 2) | 3 | -0.576 | -1.08 | 2.83
PRELID3B (PRELI domain containing 3B) | 1 | -0.131 | 2.05 | 4.64
PRELID3B (PRELI domain containing 3B) | 2 | 3.72 | 29.1 | 15.6
PRELID3B (PRELI domain containing 3B) | 3 | 0.247 | 4.71 | 4.74
WT1-AS (WT1 antisense RNA) | 1 | 0.446 | 6.11 | 5.79
WT1-AS (WT1 antisense RNA) | 2 | 0.188 | 4.29 | 6.08
WT1-AS (WT1 antisense RNA) | 3 | -0.653 | -1.63 | 2.65
HNRNPA1P35 (heterogeneous nuclear ribonucleoprotein A1 pseudogene 35) | 1 | 0.272 | 4.88 | 5.04
HNRNPA1P35 (heterogeneous nuclear ribonucleoprotein A1 pseudogene 35) | 2 | -0.052 | 2.6 | 3.87
HNRNPA1P35 (heterogeneous nuclear ribonucleoprotein A1 pseudogene 35) | 3 | -0.685 | -1.85 | 3.08
SCRT2 (scratch family transcriptional repressor 2) | 1 | -1.28 | -6.03 | 2.2
SCRT2 (scratch family transcriptional repressor 2) | 2 | -0.0875 | 2.35 | 6.76
SCRT2 (scratch family transcriptional repressor 2) | 3 | 1.3 | 12.1 | 10.2
ACP7 (acid phosphatase 7, tartrate resistant (putative)) | 1 | 2.83 | 22.9 | 12.2
ACP7 (acid phosphatase 7, tartrate resistant (putative)) | 2 | 3.37 | 26.7 | 12.3
ACP7 (acid phosphatase 7, tartrate resistant (putative)) | 3 | 1.26 | 11.8 | 7.06
RHOG (ras homolog family member G) | 1 | 0.466 | 6.25 | 6.32
RHOG (ras homolog family member G) | 2 | -0.254 | 1.18 | 5.49
RHOG (ras homolog family member G) | 3 | 0.464 | 6.23 | 6.84
STMP1 (short transmembrane mitochondrial protein 1) | 1 | -0.653 | -1.63 | 2.99
STMP1 (short transmembrane mitochondrial protein 1) | 2 | -0.6 | -1.25 | 2.94
STMP1 (short transmembrane mitochondrial protein 1) | 3 | 0.358 | 5.48 | 4.98
STMP1 (short transmembrane mitochondrial protein 1) | 4 | 0.486 | 6.38 | 6.18
STMP1 (short transmembrane mitochondrial protein 1) | 5 | -0.848 | -3 | 2.11
STMP1 (short transmembrane mitochondrial protein 1) | 6 | -0.402 | 0.137 | 3.09
DUBR (DPPA2 upstream binding RNA) | 1 | -0.831 | -2.88 | 3
DUBR (DPPA2 upstream binding RNA) | 2 | 1.19 | 11.3 | 8.22
DUBR (DPPA2 upstream binding RNA) | 3 | -1.06 | -4.47 | 2.39
ERGIC3 (ERGIC and golgi 3) | 1 | 0.857 | 9 | 6.82
ERGIC3 (ERGIC and golgi 3) | 2 | 0.829 | 8.8 | 7.98
ERGIC3 (ERGIC and golgi 3) | 3 | -0.683 | -1.84 | 2.58
EMILIN2 (elastin microfibril interfacer 2) | 1 | 0.342 | 5.37 | 4.69
EMILIN2 (elastin microfibril interfacer 2) | 2 | 2.25 | 18.8 | 14.4
EMILIN2 (elastin microfibril interfacer 2) | 3 | -1.26 | -5.89 | 1.78

Continued (11 carried over from the part before).
gene symbol | reagent | G2 robust z-score | G2 cells, % of GMNN control | raw share of cells in G2 (%)
STMP1 (short transmembrane mitochondrial protein 1) | 5 | -0.848 | -3 | 2.11
STMP1 (short transmembrane mitochondrial protein 1) | 6 | -0.402 | 0.137 | 3.09
DUBR (DPPA2 upstream binding RNA) | 1 | -0.831 | -2.88 | 3
DUBR (DPPA2 upstream binding RNA) | 2 | 1.19 | 11.3 | 8.22
DUBR (DPPA2 upstream binding RNA) | 3 | -1.06 | -4.47 | 2.39
ERGIC3 (ERGIC and golgi 3) | 1 | 0.857 | 9 | 6.82
ERGIC3 (ERGIC and golgi 3) | 2 | 0.829 | 8.8 | 7.98
ERGIC3 (ERGIC and golgi 3) | 3 | -0.683 | -1.84 | 2.58
EMILIN2 (elastin microfibril interfacer 2) | 1 | 0.342 | 5.37 | 4.69
EMILIN2 (elastin microfibril interfacer 2) | 2 | 2.25 | 18.8 | 14.4
EMILIN2 (elastin microfibril interfacer 2) | 3 | -1.26 | -5.89 | 1.78
MAP1A (microtubule associated protein 1A) | 1 | 3.45 | 27.2 | 16.3
MAP1A (microtubule associated protein 1A) | 2 | 1.81 | 15.7 | 11.4
MAP1A (microtubule associated protein 1A) | 3 | 0.221 | 4.52 | 4.69
DNAJC18 (DnaJ heat shock protein family (Hsp40) member C18) | 1 | 0.0649 | 3.42 | 4.82
DNAJC18 (DnaJ heat shock protein family (Hsp40) member C18) | 2 | 0.806 | 8.64 | 6.09
DNAJC18 (DnaJ heat shock protein family (Hsp40) member C18) | 3 | 0.00552 | 3.01 | 4.15
KDM8 (lysine demethylase 8 (putative)) | 1 | 0.0651 | 3.43 | 5.87
KDM8 (lysine demethylase 8 (putative)) | 2 | 0.304 | 5.11 | 6.54
KDM8 (lysine demethylase 8 (putative)) | 3 | -0.91 | -3.44 | 1.44
NEU4 (neuraminidase 4) | 1 | -0.939 | -3.64 | 3.41
NEU4 (neuraminidase 4) | 2 | 0.306 | 5.12 | 6.42
NEU4 (neuraminidase 4) | 3 | -1.24 | -5.77 | 2.99
PLCL1 (phospholipase C like 1 (inactive)) | 1 | 2.18 | 18.3 | 10.2
PLCL1 (phospholipase C like 1 (inactive)) | 2 | -0.649 | -1.6 | 4.43
PLCL1 (phospholipase C like 1 (inactive)) | 3 | -0.0373 | 2.71 | 5.71
CEP131 (centrosomal protein 131) | 1 | 3.39 | 26.8 | 15.5
CEP131 (centrosomal protein 131) | 2 | -0.479 | -0.403 | 3.97
CEP131 (centrosomal protein 131) | 3 | 0.323 | 5.24 | 5.13
NCR1 (natural cytotoxicity triggering receptor 1) | 1 | -0.864 | -3.11 | 4.03
NCR1 (natural cytotoxicity triggering receptor 1) | 2 | 1.23 | 11.6 | 9.47
NCR1 (natural cytotoxicity triggering receptor 1) | 3 | -0.415 | 0.0494 | 3.22
TP53 (tumor protein p53) | 1 | -0.053 | 2.59 | 4.49
TP53 (tumor protein p53) | 2 | -0.865 | -3.12 | 3.39
TP53 (tumor protein p53) | 3 | 1.02 | 10.1 | 6.79
IST1 (IST1 factor associated with ESCRT-III) | 1 | 0.276 | 4.91 | 7.55
IST1 (IST1 factor associated with ESCRT-III) | 2 | -0.132 | 2.04 | 4.79
IST1 (IST1 factor associated with ESCRT-III) | 3 | 2.29 | 19.1 | 10.3
LINC02905 (long independently transcribed non-coding RNA 2905) | 1 | 0.00349 | 2.99 | 4.78
LINC02905 (long independently transcribed non-coding RNA 2905) | 2 | -0.231 | 1.34 | 3.92
LINC02905 (long independently transcribed non-coding RNA 2905) | 3 | 1.43 | 13 | 7.55
AMBN (ameloblastin) | 1 | 0.0825 | 3.55 | 6.97
AMBN (ameloblastin) | 2 | -1.04 | -4.37 | 2.49
AMBN (ameloblastin) | 3 | 0.977 | 9.84 | 7.38
